Source: patent WO2010064456A1
Results are given in words; binding and its absence hold for the method and conditions named. Some binding calls cover weakened binding; strength is not graded here.

T1: rhNR10 (human) (UniProt Q8NI17)
T1 sequence (looked up): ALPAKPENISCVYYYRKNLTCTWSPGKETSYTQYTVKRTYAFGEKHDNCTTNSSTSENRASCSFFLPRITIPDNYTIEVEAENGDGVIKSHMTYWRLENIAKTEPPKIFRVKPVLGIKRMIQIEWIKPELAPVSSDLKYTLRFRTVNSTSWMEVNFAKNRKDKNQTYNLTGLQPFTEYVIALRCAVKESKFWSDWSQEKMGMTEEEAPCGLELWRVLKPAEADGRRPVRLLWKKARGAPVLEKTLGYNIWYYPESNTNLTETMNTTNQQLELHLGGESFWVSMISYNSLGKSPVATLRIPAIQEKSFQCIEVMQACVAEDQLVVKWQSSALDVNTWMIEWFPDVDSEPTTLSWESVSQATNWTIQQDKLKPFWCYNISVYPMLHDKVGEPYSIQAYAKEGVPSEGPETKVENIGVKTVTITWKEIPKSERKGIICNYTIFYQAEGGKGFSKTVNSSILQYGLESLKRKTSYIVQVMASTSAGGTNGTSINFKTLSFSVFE


Columns and labels:
rhNR10 (human) [1] = target: T1, rhNR10 (human); test: SPR (Biacore T100), antibody captured on Protein A, rhNR10 as analyte
rhNR10 (human) [2] = target: T1, rhNR10 (human); test: SPR (Biacore), method of Example 7 (Reference Example 10)

Row | Binder | binding (rhNR10 (human) [1]) | binding (rhNR10 (human) [2])
1 | Hp3Lp15 (H chain Hp3-SKSC, L chain Lp15) (antibody, V domains shown) VH: QVQLVQSGAEVKKPGASVKVSCKASGYTFTGYIMNWVRQAPGQGLEWMGLINPYNGGTSYNQQFQDRVTITADESTSTAYMELSSLRSEDTAVYYCARDGYDDGPYTMDYWGQGTLVTVSS VL: DIQMTQSPSSLSASVGDRVTITCQTSEDIYSFLAWYQQKPGKAPKLLIYNAQTEAQGVPSRFSGSGSGTDFTLTISSLQPEDFATYYCQHHYESPLTFGGGTKVEIKR | binds | 
2 | Ha401La402 (H chain Ha401-SKSC, L chain La402) (antibody, V domains shown) VH: QVQLVQSGAEVKKPGASVKVSCKASGYTFTGYVINWVRQAPGQGLEWMGLINPYNGGTDYNQKFKGRVTITADESTSTAYMELSSLRSEDTAVYYCARDGYDDGPYTMDYWGQGTLVTVSS VL: DIQMTQSPSSLSASVGDRVTITCQTSENIYRFVAWYQQKPGKAPKLLIYNAKTLAKGVPSRFSGSGSGTDFTLTISSLQPEDFATYYCQHHYDSPLTFGGGTKVEIKR | binds | 
3 | H17L11 (H chain H17-M58, L chain L11) (antibody, V domains shown) VH: QVQLVQSGAEVKKPGASVKVSCKASGYTFTGYVLNWVRQAPGQGLEWMGLINPYNGGTDYNPQFQDRVTITADESTSTAYMELSSLRSEDTAVYYCARDGYDDGPYTMDYWGQGTLVTVSS VL: DIQMTQSPSSLSASVGDRVTITCQTSEDIYRFVAWYQQKPGKAPKLLIYNAQTEAQGVPSRFSGSGSGTDFTLTISSLQPEDFATYYCQHHYDSPLTFGGGTKVEIKR |  | binds
4 | H19L12 (H chain H19-M58, L chain L12) (antibody, V domains shown) VH: QVQLVQSGAEVKKPGASVKVSCKASGYTFTGYAMNWVRQAPGQGLEWMGLINPYNGGTDYNPQFQDRVTITADESTSTAYMELSSLRSEDTAVYYCARDGYDDGPYTMDYWGQGTLVTVSS VL: DIQMTQSPSSLSASVGDRVTITCQTSEDIYSFVAWYQQKPGKAPKLLIYNAQTEAQGVPSRFSGSGSGTDFTLTISSLQPEDFATYYCQHHYDSPLTFGGGTKVEIKR | binds | 
5 | H0L17 (H chain H0-M58, L chain L17) (antibody, V domains shown) VH: QVQLVQSGAEVKKPGASVKVSCKASGYTFTGYIMNWVRQAPGQGLEWMGLINPYNGGTSYNQKFKGRVTITADESTSTAYMELSSLRSEDTAVYYCARDGYDDGPYTMDYWGQGTLVTVSS VL: DIQMTQSPSSLSASVGDRVTITCQASEDIYSFVAWYQQKPGKAPKLLIYNAQTEAQGVPSRFSGSGSGTDFTLTISSLQPEDFATYYCQHHYDSPLTFGGGTKVEIKR | binds | 
6 | H28L17 (H chain H28-M58, L chain L17) (antibody, V domains shown) VH: QVQLVQSGAEVKKPGASVKVSCKASGYTFTGYVLNWVRQAPGQGLEWMGLINPYNGGTDYNPQFQDRVTITADESTSTAYMELSSLRSEDTAVYYCARDGYDDGPYTLETWGQGTLVTVSS VL: DIQMTQSPSSLSASVGDRVTITCQASEDIYSFVAWYQQKPGKAPKLLIYNAQTEAQGVPSRFSGSGSGTDFTLTISSLQPEDFATYYCQHHYDSPLTFGGGTKVEIKR | binds | 
7 | H30L17 (H chain H30-M58, L chain L17) (antibody, V domains shown) VH: QVQLVQSGAEVKKPGASVKVSCKASGYTFTGYIMNWVRQAPGQGLEWMGLINPYNGGTDYNPQFQDRVTITADESTSTAYMELSSLRSEDTAVYYCARDGYDDGPYTLETWGQGTLVTVSS VL: DIQMTQSPSSLSASVGDRVTITCQASEDIYSFVAWYQQKPGKAPKLLIYNAQTEAQGVPSRFSGSGSGTDFTLTISSLQPEDFATYYCQHHYDSPLTFGGGTKVEIKR | binds | 
8 | H34L17 (H chain H34-M58, L chain L17) (antibody, V domains shown) VH: QVQLVQSGAEVKKPGASVKVSCKASGYTFTGYAMNWVRQAPGQGLEWMGLINPYNGGTDYNPQFQDRVTITADESTSTAYMELSSLRSEDTAVYYCARDGYDDGPYTLETWGQGTLVTVSS VL: DIQMTQSPSSLSASVGDRVTITCQASEDIYSFVAWYQQKPGKAPKLLIYNAQTEAQGVPSRFSGSGSGTDFTLTISSLQPEDFATYYCQHHYDSPLTFGGGTKVEIKR | binds | 
9 | H42L17 (H chain H42-M58, L chain L17) (antibody, V domains shown) VH: QVQLVQSGAEVKKPGASVKVSCKASGYTFTGYVLNWVRQAPGQGLEWMGLINPYNGGTDYNPQFQDRVTITADKSTSTAYMELSSLRSEDTAVYYCARDGYDDGPYTLETWGQGTLVTVSS VL: DIQMTQSPSSLSASVGDRVTITCQASEDIYSFVAWYQQKPGKAPKLLIYNAQTEAQGVPSRFSGSGSGTDFTLTISSLQPEDFATYYCQHHYDSPLTFGGGTKVEIKR | binds | 
10 | H44L17 (H chain H44-M58, L chain L17) (antibody, V domains shown) VH: QVQLVQSGAEVKKPGASVKVSCKASGYTFTGYIMNWVRQAPGQGLEWMGLINPYNGGTDYNPQFQDRVTITADKSTSTAYMELSSLRSEDTAVYYCARDGYDDGPYTLETWGQGTLVTVSS VL: DIQMTQSPSSLSASVGDRVTITCQASEDIYSFVAWYQQKPGKAPKLLIYNAQTEAQGVPSRFSGSGSGTDFTLTISSLQPEDFATYYCQHHYDSPLTFGGGTKVEIKR | binds | 
11 | H46L17 (H chain H46-M58, L chain L17) (antibody, V domains shown) VH: QVQLVQSGAEVKKPGASVKVSCKASGYTFTGYAMNWVRQAPGQGLEWMGLINPYNGGTDYNPQFQDRVTITADKSTSTAYMELSSLRSEDTAVYYCARDGYDDGPYTLETWGQGTLVTVSS VL: DIQMTQSPSSLSASVGDRVTITCQASEDIYSFVAWYQQKPGKAPKLLIYNAQTEAQGVPSRFSGSGSGTDFTLTISSLQPEDFATYYCQHHYDSPLTFGGGTKVEIKR | binds | 
12 | H57L17 (H chain H57-M58, L chain L17) (antibody, V domains shown) VH: QVQLVQSGAEVKKPGASVKVSCKASGYTFTGYIMNWVRQAPGQGLEWMGLINPYNGGTDYNPQFQGRVTITADESTSTAYMELSSLRSEDTAVYYCARDGYDDGPYTLETWGQGTLVTVSS VL: DIQMTQSPSSLSASVGDRVTITCQASEDIYSFVAWYQQKPGKAPKLLIYNAQTEAQGVPSRFSGSGSGTDFTLTISSLQPEDFATYYCQHHYDSPLTFGGGTKVEIKR | binds | 
13 | H71L17 (H chain H71-M58, L chain L17) (antibody, V domains shown) VH: QVQLVQSGAEVKKPGASVKVSCKASGYTFTGYAMNWVRQAPGQGLEWMGLINPYNGGTDYNPQFQGRVTITADESTSTAYMELSSLRSEDTAVYYCARDGYDDGPYTLETWGQGTLVTVSS VL: DIQMTQSPSSLSASVGDRVTITCQASEDIYSFVAWYQQKPGKAPKLLIYNAQTEAQGVPSRFSGSGSGTDFTLTISSLQPEDFATYYCQHHYDSPLTFGGGTKVEIKR | binds | 
14 | H78L17 (H chain H78-M58, L chain L17) (antibody, V domains shown) VH: QVQLVQSGAEVKKPGASVKVSCKASGYTFTGYIMNWVRQAPGQGLEWMGLINPYNGGTDYNPQFQGRVTITADKSTSTAYMELSSLRSEDTAVYYCARDGYDDGPYTLETWGQGTLVTVSS VL: DIQMTQSPSSLSASVGDRVTITCQASEDIYSFVAWYQQKPGKAPKLLIYNAQTEAQGVPSRFSGSGSGTDFTLTISSLQPEDFATYYCQHHYDSPLTFGGGTKVEIKR | binds | 
15 | H92L17 (H chain H92-M58, L chain L17) (antibody, V domains shown) VH: QVQLVQSGAEVKKPGASVKVSCKASGYTFTGYAMNWVRQAPGQGLEWMGLINPYNGGTDYNPQFQGRVTITADKSTSTAYMELSSLRSEDTAVYYCARDGYDDGPYTLETWGQGTLVTVSS VL: DIQMTQSPSSLSASVGDRVTITCQASEDIYSFVAWYQQKPGKAPKLLIYNAQTEAQGVPSRFSGSGSGTDFTLTISSLQPEDFATYYCQHHYDSPLTFGGGTKVEIKR | binds | 
16 | H97L50 (H chain H97-M58, L chain L50) (antibody, V domains shown) VH: QVQLVQSGAEVKKPGASVKVSCKASGYTFTGYIMNWVRQAPGQGLEWMGLINPYNGGTSYNQQFQDRVTITADESTSTAYMELSSLRSEDTAVYYCARDGYDDGPYTLETWGQGTLVTVSS VL: DIQMTQSPSSLSASVGDRVTITCQASEDIYSFLAWYQQKPGKAPKLLIYNAQTEAQGVPSRFSGSGSGTDFTLTISSLQPEDFATYYCQHHYDSPLTFGGGTKVEIKR | binds | 
17 | H98L50 (H chain H98-M58, L chain L50) (antibody, V domains shown) VH: QVQLVQSGAEVKKPGASVKVSCKASGYTFTGYIMNWVRQAPGQGLEWMGLINPYNGGTSYNQQFQDRVTITADKSTSTAYMELSSLRSEDTAVYYCARDGYDDGPYTLETWGQGTLVTVSS VL: DIQMTQSPSSLSASVGDRVTITCQASEDIYSFLAWYQQKPGKAPKLLIYNAQTEAQGVPSRFSGSGSGTDFTLTISSLQPEDFATYYCQHHYDSPLTFGGGTKVEIKR | binds | 
